PubChem BioAssay AID1259327 | Drosophila RNAi Screening Center, 2017
Here is an unselected part of about 3,100 reagents. Of all reagents, 378 (12%) were called active. 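Hits include both directions; z-score sign shows ATP rise or fall; raw luminescence values are not plate-normalised.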 A number with no mark means an inactive call. A plus sign joins genes that one reagent is predicted to hit. No sequences are given here. Not stated in the record: the amount of reagent.

Screen: 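Baseline ATP after transmembrane-protein gene knock-down with water vehicle only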
System: Drosophila S2R+ cells
Reagent: long dsRNA against Drosophila genes
Timing: 5 days (water added on day 4, read one day later)
Treatment: water added as vehicle, no metal, one day before read-out
Measurement: 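Luciferase ATP signal per well, normalised to plate mean, duplicate average converted to z-score across plates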
Direction: ATP z-score: higher = more total ATP than typical wells; ATP luminescence: higher = more total ATP
Active means: 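Called active when the ATP z-score exceeds 1.5 or falls below -1.5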
Meaning of the calls: active = hit: ATP up or down; inactive = no clear ATP change

The opening 2 entries, ahead of the listing:
CG30049 [DRSC21345] | ATP z-score, duplicate mean: 0.0366; ATP luminescence, replicate 1 (RLU): 6.25e5; ATP luminescence, replicate 2 (RLU): 5.39e5
CG30049 [DRSC26709] | ATP z-score, duplicate mean: 0.249; ATP luminescence, replicate 1 (RLU): 1.24e6; ATP luminescence, replicate 2 (RLU): 1.21e6

The listing, from the start:
CG30049 [DRSC21345] | ATP z-score, duplicate mean: 0.0366; ATP luminescence, replicate 1 (RLU): 6.25e5; ATP luminescence, replicate 2 (RLU): 5.39e5
CG30049 [DRSC26709] | ATP z-score, duplicate mean: 0.249; ATP luminescence, replicate 1 (RLU): 1.24e6; ATP luminescence, replicate 2 (RLU): 1.21e6
Ac78C [DRSC11602] | ATP z-score, duplicate mean: -0.128; ATP luminescence, replicate 1 (RLU): 9.16e5; ATP luminescence, replicate 2 (RLU): 8.44e5
Ac78C [DRSC11619] | ATP z-score, duplicate mean: 0.816; ATP luminescence, replicate 1 (RLU): 8.55e5; ATP luminescence, replicate 2 (RLU): 8.05e5
Lfg + asRNA:CR43468 [DRSC06853] | ATP z-score, duplicate mean: -0.961; ATP luminescence, replicate 1 (RLU): 4.80e5; ATP luminescence, replicate 2 (RLU): 5.85e5
Pex12 [DRSC00622] | ATP z-score, duplicate mean: 0.465; ATP luminescence, replicate 1 (RLU): 7.93e5; ATP luminescence, replicate 2 (RLU): 7.15e5
Pex12 [DRSC27149] | ATP z-score, duplicate mean: 0.0258; ATP luminescence, replicate 1 (RLU): 7.22e5; ATP luminescence, replicate 2 (RLU): 1.03e6
sut3 [DRSC07702] | ATP z-score, duplicate mean: -1.7 (active); ATP luminescence, replicate 1 (RLU): 4.52e5; ATP luminescence, replicate 2 (RLU): 4.80e5
sut3 [DRSC24322] | ATP z-score, duplicate mean: -1.12; ATP luminescence, replicate 1 (RLU): 7.15e5; ATP luminescence, replicate 2 (RLU): 7.08e5
CG6293 [DRSC16011] | ATP z-score, duplicate mean: 1.33; ATP luminescence, replicate 1 (RLU): 8.90e5; ATP luminescence, replicate 2 (RLU): 7.97e5
CG6293 [DRSC28774] | ATP z-score, duplicate mean: 1.26; ATP luminescence, replicate 1 (RLU): 1.13e6; ATP luminescence, replicate 2 (RLU): 8.30e5
Gr98d [DRSC14571] | ATP z-score, duplicate mean: -0.705; ATP luminescence, replicate 1 (RLU): 5.08e5; ATP luminescence, replicate 2 (RLU): 6.37e5
Gr98d [DRSC24547] | ATP z-score, duplicate mean: 0.615; ATP luminescence, replicate 1 (RLU): 9.58e5; ATP luminescence, replicate 2 (RLU): 8.95e5
